PubChem BioAssay AID504784 – Drosophila RNAi Screening Center – 2011
In all, the deposit lists about 17,000 reagents; this is a random part of those with a known target gene and a result. 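Each column is one replicate's B-score; the combined score over replicates was not deposited, so single values may mislead.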 A plus sign joins genes that one reagent is predicted to hit.

- Screen: 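Genome-wide knock-down for genes giving too much or too little stored lipid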 (primary screen)
- Cells: Drosophila Kc167 embryonic cells
- Reagents: long dsRNA against Drosophila genes, about 250 ng dsRNA per well
- Time to read-out: 4 days
- Treatment: cells fed 400 µM oleic acid bound to BSA
- Measured: 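Cells imaged and segmented; ratio of lipid droplet area to nuclear area, log-transformed, then normalised as a B-score over the screen; higher means more stored lipid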
- Scale: droplet/nuclear area B-score: higher = more stored lipid (overstorage)

target gene	dsRNA	droplet/nuclear area B-score, replicate 1	droplet/nuclear area B-score, replicate 2	droplet/nuclear area B-score, replicate 3
pr (GeneID 35292)	DRSC03596	-1	0.333	
CG12128 (GeneID 36042)	DRSC06104	1.37	-0.155	
CG31955 (GeneID 319045)	DRSC00285	0.489	-1.19	
CG4259 (GeneID 33385)	DRSC00645	-0.503	0.56	
CG11980 (GeneID 41078)	DRSC14456	0.953	0.652	
CG5938 (GeneID 43290)	DRSC15923	0.489		
Mcm3 (GeneID 31449)	DRSC18679	2.54	0	-0.933
VhaPPA1-1 (GeneID 45247)	DRSC16170	-0.179	2.66	
CG32299 + CG32298	DRSC07980	0.384	2.39	
CG32299 + CG32298	DRSC22354	0.491	-0.643	
Cpr76Bd (GeneID 40123)	DRSC11063	-1.85	-0.466	
CG17562 (GeneID 42021)	DRSC15243	-0.659	1.74	
MED20 (GeneID 43952)	DRSC03463	-0.481	-0.0139	
Sirt1 (GeneID 34708)	DRSC03435	-0.701	0.00232	
abo (GeneID 44793)	DRSC02926	0.56	-0.341	
speck (GeneID 37867)	DRSC04608	-1.85	-1.97	
CG4751 (GeneID 34551)	DRSC02776	-0.196	1.33	
Cenp-C (GeneID 41014)	DRSC14371	2.86	1.13	
Cht2 (GeneID 38223)	DRSC08650	-0.21	1.19	
CG42264 (GeneID 31504)	DRSC18074	1.11	0.521	
CG42264 (GeneID 31504)	DRSC18075	1.54	0.011	
CG8119 (GeneID 32500)	DRSC20083	0.63	-1.05	
CG14456 (GeneID 40481)	DRSC11713	0.656	0.314	
lncRNA:CR31044 (GeneID 10178917)	DRSC22451	-1.08	0.837	
CG14495 (GeneID 37056)	DRSC06466	-0.512	0.0687	
Cortactin (GeneID 42491)	DRSC16612	-0.802	-0.111	
amd (GeneID 35188)	DRSC02608	1.24	-0.589	0.835
amd (GeneID 35188)	DRSC03483	-0.0392	0.623	
sw + Sdic4 + Sdic3 + 2 more	DRSC20696	-1.01	0.03	
CG31342 (GeneID 41592)	DRSC15349	0.000816	-0.425	
CG31342 (GeneID 41592)	DRSC16246	-0.173	1.88	
Gem4b + Gem4c + Glos	DRSC18244	0.607	0.441	
ND-51L1 (GeneID 36998)	DRSC06072	-0.707	0.355	
CG12853 (GeneID 50220)	DRSC06193	-1.08	0.72	-0.401
srw (GeneID 38525)	DRSC08201	-0.14	1.17	
pic (GeneID 41611)	DRSC16639	-0.847	0.494	
CG18371 (GeneID 36556)	DRSC06733	2.57	-0.318	
Keap1 (GeneID 42062)	DRSC15528	0.0127	-0.51	
robl22E (GeneID 33412)	DRSC00289	-0.589	0.83	
daw (GeneID 33474)	DRSC00479	-1.14	-0.613	
CG30412 (GeneID 37691)	DRSC04564	0.0196	-2.02	-1.51
Tpr2 (GeneID 34984)	DRSC03461	3.34	-1.31	
CG14565 (GeneID 40423)	DRSC11726	-0.0802	-1.88	
nSyb (GeneID 38196)	DRSC08727	-0.1		
E(bx) (GeneID 44811)	DRSC08172	0.319	0.128	
E(bx) (GeneID 44811)	DRSC08509	-1.53	0.445	
E(bx) (GeneID 44811)	DRSC08583	1.06	1.5	
Catsup (GeneID 48805)	DRSC03288	-0.455	0.299	
Mettl2 (GeneID 38197)	DRSC08398	-0.117		
bif (GeneID 32119)	DRSC18901	-1.6	-0.666	
bif (GeneID 32119)	DRSC20313	-0.0461	-0.921	0.319
CG42268 (GeneID 39145)	DRSC10171	1.09	2.52	
CG42268 (GeneID 39145)	DRSC10702	0.569	-1.65	
CG42268 (GeneID 39145)	DRSC21797	-0.711	-1.19	
Secp43 (GeneID 33652)	DRSC00454	0.173	-0.739	
Balat (GeneID 36417)	DRSC06852	-0.0937	0.206	

Reprinted from the listing (5 entries):
target gene	dsRNA	droplet/nuclear area B-score, replicate 1	droplet/nuclear area B-score, replicate 2	droplet/nuclear area B-score, replicate 3
Cenp-C (GeneID 41014)	DRSC14371	2.86	1.13	
Cht2 (GeneID 38223)	DRSC08650	-0.21	1.19	
CG42264 (GeneID 31504)	DRSC18074	1.11	0.521	
CG42264 (GeneID 31504)	DRSC18075	1.54	0.011	
CG8119 (GeneID 32500)	DRSC20083	0.63	-1.05	
